In this assay the target is 6xHis-tagged human Skp1 (human) (UniProt P63208). As to the kind of experiment: co-purification; F-box protein co-expressed with 6xHis-tagged Skp1 in E. coli; complex purified by Ni-NTA affinity, anion-exchange and gel-filtration chromatography.

Results are given in words; binding and its absence hold for the method and conditions named. Some entries that bind do so weakly or less than the wild type.

B1: murine Fbs1 (of the Skp1–Fbs1 complex) (protein, UniProt Q80UW2 1-297)
chain: MDGDGDPESVSHPEEASPEEQPEEAGAEASAEEEQLREAEEEEEAEAVEYLAELPEPLLLRVLAELPATELVQACRLVCLRWKELVDGAPLWLLKCQQEGLVPEGSADEERDHWQQFYFLSKRRRNLLRNPCGEEDLEGWSDVEHGGDGWRVEELPGDNGVEFTQDDSVKKYFASSFEWCRKAQVIDLQAEGYWEELLDTTQPAIVVKDWYSGRTDAGSLYELTVRLLSENEDVLAEFATGQVAVPEDGSWMEISHTFIDYGPGVRFVRFEHGGQDSVYWKGWFGARVTNSSVWVEP
For B1, the binding entry is “binds”.
